Experimental data reported in the supplement of paper PMC10338343.
± gives the standard deviation. Only a part is listed here, and it is no random draw. Many entries were measured with a wide error.

What follows are sequences tested on MILI (PIWIL2) piRISC loaded with piRNA #1 (26 nt) (assay: pre-steady-state target cleavage rate (min^-1); MIWI and MILI are mouse PIWI proteins and EfPiwi is from a freshwater sponge; tags in brackets are library labels; higher = faster piRNA-guided slicing of the target). Settings: guide: piRNA #1 5'p-UGAGGUAGUAGGUUGUAUAGUAUCCA; auxiliary factor: 500 nM mouse GTSF1.
In short: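 In Cleave-'n-Seq, a transcribed, DNA-blocked target RNA library (0.1 nM) was combined with 1 nM active affinity-purified piRISC bearing one synthetic guide, with or without 500 nM GTSF1 partner protein. Reactions ran in HEPES–potassium acetate buffer at 33 °C for 0–8 or 0–960 min. Uncleaved targets were sequenced and normalised to depth and to weakly complementary targets, three trials were pooled, and k3 was capped at 0.0001 min^-1. The pre-steady-state cleavage rate was obtained by fitting a burst-and-steady-state model.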

| Sequence | pre-steady-state target cleavage rate |
| --- | --- |
| GGAGUGGAUGCUAUACAACCUACUACCUCA | 0.152 ± 0.022 |
| GGAGACCAUACUAUACAACCUACAUGGAGA [g8:g23:cont:t1A] | 0.00198 ± 0.0058 |
| GGAGACGUUACAAUACAACCUACUACCUCA | 0.163 ± 0.015 |
| GGAGACCUAUGAUAACAACCUAGUACCUGA | 0.000119 ± 0.029 |
| GGAGAGGAUACUAUAGAUCCUACUACCUCA | 0.242 ± 0.024 |
| GGAGACCUAUGAAUUCAACCUACUAGCUCA | 0.00124 ± 0.005 |
| GGAGACCUAACCUAUACAACCUACUACCUCA | 0.107 ± 0.056 |
| GGAGUGGAUACUUUACAACCUAGUACCUCA | 0.0239 ± 0.0053 |
| GGAGAGGAUACUAUACCAACCUACUACCUCA | 0.0443 ± 0.0084 |
| GGAGACCUAUGAUAUGUACCUACAUACCUCA | 0.000113 ± 0.022 |
| GGAGUGGAUACUAUACAUACCUACUACCUCA | 0.00115 ± 0.0071 |
| GGAGAGGAUACUAUACAACCUACUGACCUCA | 0.077 ± 0.013 |
| GGAGACCUUACUAAACAACCUACUACCUCA | 0.112 ± 0.012 |
| GGAGACCUAUGAUAUGAACGUACUACCACA | 0.000169 ± 0.029 |
| GGAGACCUAUGAUAUGAACCUACUACCUCG [g2:g14:cont:t1G] | 0.000396 ± 0.0064 |
| GGAGACCUAUGAUAUGUACCUACUACACUCA | 0.000152 ± 0.013 |
| GGAGACCUAUGAAUAGAACGUACUACCUCA | 0.000477 ± 0.0079 |
| GGAGAGGAUACUAUACAAGCUACUACCACA | 0.243 ± 0.019 |
| GGAGACCUAUCUAUACUACCUACUAGCUCA | 0.0698 ± 0.014 |
| GGAGACCUAUGAUUACAACCUACUUGGUCA | 0.00021 ± 0.02 |
| GGAGACCAUACUAUACAACACUACUACCUCA | 0.00135 ± 0.0062 |
| GGAGACCUAUGAAUACAACCUAGAUGGAGA [g9:g18:cont:t1A] | 0.000636 ± 0.0066 |
| GGAGACCUAACCAUACAACCUACUACCUCA | 0.12 ± 0.072 |

Quoted from the listing:
In pre-steady-state target cleavage rate, GGAGACGUUACAAUACAACCUACUACCUCA is entered as 0.163 ± 0.015
In pre-steady-state target cleavage rate, GGAGACCUAUGAUAUGAACCUACUACCUCG [g2:g14:cont:t1G] is entered as 0.000396 ± 0.0064
